Test results published in patent US20140193843A1 (Institut Pasteur, priority 2008, published 2014).
No end group written: not given here.

Columns and labels:
[1] = Quantification of Opiorphin in the saliva from healthy human volunteers (ELISA)
[2] = Quantification of Opiorphin in the tears of human volunteers (ELISA)
[3] = Quantification of Opiorphin in plasma from healthy human volunteers (SepPak, HPLC, ELISA); conditions: for Mean ± SEM ng Opiorphin/ml initial plasma volume: extract concentrated 53-fold
[4] = Quantification of Opiorphin in the seminal fluid from human volunteers (ELISA)
[5] = volunteers with congenital bilateral agenesis, n=4

QRFSR [Opiorphin, QRFSR]
Mean ± Standard Error of Mean (SEM) ng Opiorphin/ml saliva ([1]; healthy men, basal condition, n=10): 59±17 ng Opiorphin/ml saliva | Mean ± Standard Error of Mean (SEM) ng Opiorphin/ml saliva ([1]; healthy men, stimulated condition (citric acid), n=6): 738±146 ng Opiorphin/ml saliva | Mean ± Standard Error of Mean (SEM) ng Opiorphin/ml saliva ([1]; healthy women, basal condition, n=10 (one sample excluded)): 61±23 ng Opiorphin/ml saliva | Mean ± Standard Error of Mean (SEM) ng Opiorphin/ml saliva ([1]; healthy women, stimulated condition (citric acid), n=13 (one sample excluded)): 247±68 ng Opiorphin/ml saliva | Opiorphin in tears, samples at or below detection limit ([2]; healthy men volunteers, 6 samples of 9): (≦2 ng/ml) | Mean ± SEM ng Opiorphin/ml tears ([2]; healthy men volunteers, n=9): 49±25 ng Opiorphin/ml tears | Opiorphin in tears, samples at or below detection limit ([2]; healthy women volunteers, 1 sample of 14): (≦2 ng/ml) | Mean ± SEM ng Opiorphin/ml tears ([2]; healthy women volunteers, n=14): 317±79 ng Opiorphin/ml tears | Mean ± SEM ng Opiorphin/ml concentrated extract sample ([3]; healthy man 1a-11, 9 determinations): 73 ± 11 ng Opiorphin/ml concentrated extract sample | Mean ± SEM ng Opiorphin/ml initial plasma volume ([3]; healthy man 1a-11): 1.4 ± 0.2 ng Opiorphin/ml initial plasma volume | Mean ± SEM ng Opiorphin/ml concentrated extract sample ([3]; healthy man 1a-12, 9 determinations): 142 ± 33 ng Opiorphin/ml concentrated extract sample | Mean ± SEM ng Opiorphin/ml initial plasma volume ([3]; healthy man 1a-12): 2.7 ± 0.6 ng Opiorphin/ml initial plasma volume | Mean ± SEM ng Opiorphin/ml concentrated extract sample ([3]; healthy woman 1b-3, 4 determinations): 34 ± 3 ng Opiorphin/ml concentrated extract sample | Mean ± SEM ng Opiorphin/ml initial plasma volume ([3]; healthy woman 1b-3): 0.6 ± 0.1 ng Opiorphin/ml initial plasma volume | Mean ± SEM ng Opiorphin/ml concentrated extract sample ([3]; healthy woman 1b-15, 4 determinations): 79 ± 13 ng Opiorphin/ml concentrated extract sample | Mean ± SEM ng Opiorphin/ml initial plasma volume ([3]; healthy woman 1b-15): 1.5 ± 0.2 ng Opiorphin/ml initial plasma volume | Mean ± SEM ng Opiorphin/ejaculation ([4]; healthy volunteers, n=11): 43.6±10.2 ng Opiorphin/ejaculation | Mean ± SEM ng Opiorphin/ml sperm ([4]; healthy volunteers, n=11, EDTA plus HCl before acid-methanol extraction): 12.9±1.8 ng Opiorphin/ml sperm | Mean ± SEM ng Opiorphin/ejaculation [4, 5]: 6.4 ± 1.6 ng Opiorphin/ejaculation | Mean ± SEM ng Opiorphin/ml sperm [4, 5]: 4.9±1.0 ng Opiorphin/ml sperm
